Measured values taken from PMC4070925.

System: thrombin
Assay: plate binding assay (streptavidin-peroxidase)
Details: Thrombin-coated plate; washes 40 mM HEPES pH 7.5, 0.05% Tween-20; commercial protein; label: 5'-biotin; single-stranded DNA

“TTGGTTGGCGTTCAAAGCAGTCTTGGGCTA [Truncate IV]” was tested, and the half-maximal binding was over 1000 nM.
